The values below come from PMC5174146.

The assay concerns the target apoferritin (UniProt P02791). Put plainly: native MS; protein mixture (native PAGE molecular weight markers) buffer-exchanged into 100 mM aqueous ammonium acetate pH 7; Orbitrap EMR, parameters optimised for the m/z window of each protein/complex, spectra stitched together; both purified.

No constants are given. Whether binding was seen depends on the method and setting. Some entries that bind do so weakly or less than the wild type.

B1: apoferritin (protein, UniProt P02791 1-175)
chain: MSSQIRQNYSTEVEAAVNRLVNLYLRASYTYLSLGFYFDRDDVALEGVCHFFRELAEEKREGAERLLKMQNQRGGRALFQDLQKPSQDEWGTTLDAMKAAIVLEKSLNQALLDLHALGSAQADPHLCDFLESHFLDEEVKLIKKMGDHLTNIQRLVGSQAGLGEYLFERLTLKHD
Consider B1, for which the binding result was “binds”.
